{"source": "patent US10500256B2", "about": "“Polymers for delivery of therapeutic proteins” (BOARD OF REGENTS, THE UNIVERSITY OF TEXAS SYSTEM, priority 2014, dated 2019)", "assay": "Loading and release of salmon calcitonin, urokinase and Rituxan from 1:2 P(IA-co-NVP) microparticles", "format": "physicochemical", "conditions": "3 mol % TEGDMA; for Loading Level: protein loading solution 200 μg/mL", "source_text": "In an additional experiment, the loading and release of urokinase was also compared to that of sCT and rituximab using P(IA-co-NVP) microparticles synthesized with a monomer ratio of 1:2 IA to NVP. This experiment utilized urokinase as another high pI protein (pI=8.66) with a molecular weight (54.0 kDa) between that of salmon calcitonin (3.4 kDa) and rituximab (144 kDa), allowing us to see the effects across a range of sizes, rather than just two endpoints. Urokinase is used clinically as a thrombolytic agent for myocardial infarction, pulmonary embolism, and deep vein thrombosis.\nThis difference arises from two results. First, the hydrogels used in this experiment were crosslinked using 3 mol % TEGDMA in the monomer feed. […] Further, this experiment utilized loading solutions of proteins at only 200 μg/mL, rather than at 400 μg/mL as was used in the preceding experiment. […] With lower loading levels comes both lower overall delivery and lower percent release, as the lower loading level means less protein to be released even at 100% efficiency and, since concentration difference is the driving force for diffusion, less entropic gain due to diffusive release which therefore shifts the equilibrium toward coulombic binding rather than diffusive release.", "note": "At least one peptide structure holds a part that was inferred or is arguable (an end, a ring closure or a residue)."}
{"molecule": "CC(C)C[C@H](NC(=O)[C@H](CCCCN)NC(=O)CNC(=O)[C@H](CC(C)C)NC(=O)[C@@H](NC(=O)[C@@H]1CSSC[C@H](N)C(=O)N[C@@H](CO)C(=O)N[C@@H](CC(N)=O)C(=O)N[C@@H](CC(C)C)C(=O)N[C@@H](CO)C(=O)N[C@@H]([C@@H](C)O)C(=O)N1)C(C)C)C(=O)N[C@@H](CO)C(=O)N[C@@H](CCC(N)=O)C(=O)N[C@@H](CCC(=O)O)C(=O)N[C@@H](CC(C)C)C(=O)N[C@@H](Cc1c[nH]cn1)C(=O)N[C@@H](CCCCN)C(=O)N[C@@H](CC(C)C)C(=O)N[C@@H](CCC(N)=O)C(=O)N[C@H](C(=O)N[C@@H](Cc1ccc(O)cc1)C(=O)N1CCC[C@H]1C(=O)N[C@@H](CCCNC(=N)N)C(=O)N[C@H](C(=O)N[C@@H](CC(N)=O)C(=O)N[C@H](C(=O)NCC(=O)N[C@@H](CO)C(=O)NCC(=O)N[C@H](C(=O)N1CCC[C@H]1C(N)=O)[C@@H](C)O)[C@@H](C)O)[C@@H](C)O)[C@@H](C)O", "note": "[Salmon Calcitonin]", "values": [{"measurement": "Loading Level", "result": "44.8 ± 4.7", "unit": "μg/mg hydrogel"}, {"measurement": "Loading Level", "setting": "listed as salmon calcitonin", "result": 44.8, "unit": "μg/mg hydrogel"}, {"measurement": "Percent Release, t = 24 h", "setting": "t=0-1 h pH 3, then pH 7.4", "result": "35.2 ± 7.2", "unit": "%"}, {"measurement": "Protein Released, t = 24 h", "setting": "t=0-1 h pH 3, then pH 7.4", "result": "15.5 ± 1.8", "unit": "μg/mg hydrogel"}]}
